# This is one part of the list. These are further read-outs of the screen, such as a control signal, another cell line or another target. No call is given for them. Compounds called inactive in the main read-out are mostly missing here. Words in brackets tell the shape of the fitted curve; partial curves, single points and poor fits give uncertain potencies.
# Assay: qHTS Assay to Find Inhibitors of Chronic Active B-Cell Receptor Signaling
# Settings: ABC-DLBCL IkBa-CBG/CBR reporter, luminescence ratio (green luciferase fused to IkBa over red control in TMD8 lymphoma cells), 4 h
# Outline: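 TMD8 human ABC-DLBCL cells with doxycycline-inducible IκBα–green luciferase fusion and unfused red luciferase, in 0.5% FBS medium; compounds up to 46 uM, 4 h at 37C. Green/red luminescence ratio, filter-overlap corrected, fitted to concentration-response curves.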
# [1] = measured here: CBR red luminescence, cell number
# [2] = measured here: IkBa-CBG green luminescence
smiles,measurement,setting,value
O=C(Nc1ccccc1)c1ccc(Br)c(S(=O)(=O)Nc2ccccn2)c1,AC50,[1],"0.112 µM [falling, full curve, poor fit]"
COc1ccc2cc(C(=O)N3CCc4ccccc43)[nH]c2c1,AC50,[1],"5.62 µM [falling, partial curve]"
CCOc1ccc(NC(=O)CN(C)S(=O)(=O)c2ccc(-c3ccc(=O)[nH]n3)s2)cc1,AC50,[1],"6.31 µM [rising, full curve, poor fit]"
O=C1C(c2ccncc2)=C(O)c2ccccc21,AC50,[1],"20.6 µM [falling, partial curve]"
O=C(N/N=C/c1ccc(N2CCOCC2)cc1)c1ccc(NS(=O)(=O)c2cccs2)cc1,AC50,[1],"17.8 µM [falling, single point]"
O=C(CN1C(=O)NC2(CCCC2)C1=O)OCc1ccc(F)cc1,AC50,[1],"5.17 µM [rising, full curve, poor fit]"
Cc1ccc(C(=O)OCC(=O)Nc2cccc(Cl)c2C)c(O)c1,AC50,[1],"14.1 µM [falling, partial curve, poor fit]"
COC(=O)COc1ccc(S(=O)(=O)NCc2ccncc2)cc1,AC50,[1],"6.51 µM [rising, single point]"
CCCOC(=O)/C(C)=N\NC(=O)c1ccco1,AC50,[1],"29.1 µM [falling, single point]"
O=[N+]([O-])c1ccc(O)c(NC(=S)Nc2ccccc2)c1,AC50,[1],"4.61 µM [rising, partial curve, poor fit]"
Cc1csc(SCC(=O)NCc2cccc(Cl)c2)n1,AC50,[1],"35.5 µM [rising, single point]"
COc1cccc(/C=C/C(=O)NNC(=O)c2ccncc2)c1,AC50,[1],"25.9 µM [falling, single point]"
CCn1cc(C(=O)NCC(OC)OC)c(=O)c2cc(S(=O)(=O)N3CCC(C)CC3)ccc21,AC50,[1],"0.112 µM [rising, full curve, poor fit]"
O=C(O)/C=C/c1cccc(NC(=O)c2ccccc2)c1,AC50,[1],"14.1 µM [falling, single point]"
CCCN(CCC)C(=O)CC(c1ccccc1)c1cc(Br)ccc1O (configuration not stated),AC50,[1],"14.6 µM [falling, partial curve, poor fit]"
COc1ccc(Cc2nnc(NC(=O)CSc3ccccc3)s2)cc1OC,AC50,[1],"1.03 µM [falling, partial curve, poor fit]"
CC1(C(=O)O)CCC(C(=O)Nc2ccccc2O)C1(C)C (configuration not stated),AC50,[2],"25.9 µM [rising, partial curve, poor fit]"
O=C(CCN1C(=O)/C(=C/c2ccccc2Cl)SC1=S)NC1=NCCS1,AC50,[1],"7.08 µM [falling, partial curve]"
CC1Cc2ccccc2N1C(=O)COC(=O)c1n[nH]c(=O)c2ccccc12 (configuration not stated),AC50,[1],"2.59 µM [falling, partial curve, poor fit]"
COc1ccc([N+](=O)[O-])c(S(=O)(=O)c2ccc(Cl)cc2)n1,AC50,[1],"11.2 µM [falling, partial curve]"
same,AC50,[2],"35.5 µM [rising, partial curve, poor fit]"
CCOC(=O)c1c(CC(C)C)csc1NC(=O)C(C)C,AC50,[1],"5.62 µM [falling, single point]"
Cc1ccc2c(c1)NC(=O)C(CC(=O)NCCCN1CCN(c3cc(C)ccc3C)CC1)O2 (configuration not stated),AC50,[1],"6.51 µM [falling, single point]"
COc1ccc2[nH]c3c(c2c1)CCN1C(=O)C(CC(=O)NCCCn2ccnc2)C[C@H](C(=O)N2CCCCC2)[C@@]31C (some centres not stated),AC50,[1],"23.1 µM [rising, partial curve, poor fit]"
COc1cc(CN2CCC(C(=O)N3CCC(C)CC3)CC2)cc(Br)c1O,AC50,[1],"5.01 µM [rising, partial curve, poor fit]"
CCn1ncc(N2CCOCC2)c(Cl)c1=O,AC50,[1],"35.5 µM [rising, single point]"
O=C(CC1SCCNC1=O)Nc1cccc(Cl)c1 (configuration not stated),AC50,[1],"18.4 µM [falling, single point]"
COc1cc(/C=N/NC(=O)/C(=C\c2ccc([N+](=O)[O-])cc2)NC(=O)c2ccccc2)cc(OC)c1O,AC50,[1],"2.31 µM [rising, partial curve, poor fit]"
COc1ccc(C2C(=O)c3ccccc3C2=O)cc1OC,AC50,[1],"11.2 µM [rising, partial curve, poor fit]"
COc1nc(N/N=C/c2ccc(-c3ccccc3[N+](=O)[O-])o2)nc(N2CCOCC2)n1,AC50,[2],"23.1 µM [falling, partial curve, poor fit]"
COc1ccc2c(c1OC)C(=O)N(c1ccccn1)C2,AC50,[1],"10 µM [falling, partial curve, poor fit]"
O=C(NC12CC3CC(CC(C3)C1)C2)c1cc([N+](=O)[O-])ccc1N1CCOCC1,AC50,[1],"0.708 µM [rising, full curve, poor fit]"
COc1ccc(-c2ccc(C#N)c(SCC(=O)NCc3ccco3)n2)cc1OC,AC50,[1],"0.562 µM [rising, full curve]"
COc1ccccc1-c1cc(C(=O)NC(C)C)no1,AC50,[1],"2.24 µM [falling, full curve]"
COc1ccc(CCC(C)N2CCC(CO)(Cc3ccccc3)CC2)cc1 (configuration not stated),AC50,[1],"0.316 µM [rising, full curve, poor fit]"
Cc1noc(C)c1C(=O)Nc1nc2ccc(Cl)cc2s1,AC50,[1],"7.94 µM [falling, partial curve]"
CCC(C)NC(=O)/C=C1\Sc2ccccc2NC1=O (configuration not stated),AC50,[1],"18.4 µM [falling, single point]"
Cc1ccc(NS(=O)(=O)c2ccc(C3CCCCC3)cc2)cc1,AC50,[1],"20.6 µM [falling, single point]"
same,AC50,[2],"25.9 µM [rising, partial curve, poor fit]"
CCn1cc(C(=O)OCc2ccccc2)c(=O)c2ccc(C)nc21,AC50,[1],"0.326 µM [falling, full curve, poor fit]"
COCCCNC(=O)CC(NS(=O)(=O)c1ccc(OC)cc1)c1ccc(OC)cc1 (configuration not stated),AC50,[1],"7.31 µM [rising, partial curve, poor fit]"
Cc1sc2ncnc(Sc3nnc4sc5ccccc5n34)c2c1C,AC50,[1],"0.731 µM [falling, partial curve, poor fit]"

# As a working copy, some entries already given:
smiles,measurement,setting,value
O=C(Nc1ccccc1)c1ccc(Br)c(S(=O)(=O)Nc2ccccn2)c1,AC50,[1],"0.112 µM [falling, full curve, poor fit]"
COc1ccc2cc(C(=O)N3CCc4ccccc43)[nH]c2c1,AC50,[1],"5.62 µM [falling, partial curve]"

# — PubChem BioAssay AID493014 (National Center for Advancing Translational Sciences (NCATS), 2011)
